Test results from article PMC4865869.
No constants are given. Whether binding was seen depends on the method and setting. Some results given as binding are weak or reduced against the parent protein; the word gives no strength.

Amino acid sequences for entries named in this document (tags omitted). Residues count along the entry.
UniProt P61224: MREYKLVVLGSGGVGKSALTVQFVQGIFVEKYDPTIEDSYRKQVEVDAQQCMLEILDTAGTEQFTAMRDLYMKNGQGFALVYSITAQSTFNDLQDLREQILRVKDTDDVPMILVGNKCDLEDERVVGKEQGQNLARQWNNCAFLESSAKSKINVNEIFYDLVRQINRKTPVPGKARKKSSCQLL
UniProt Q9BPZ7, residues 266-374: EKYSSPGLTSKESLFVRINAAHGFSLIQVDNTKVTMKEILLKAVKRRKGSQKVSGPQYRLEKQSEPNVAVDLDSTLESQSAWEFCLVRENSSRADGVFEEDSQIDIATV

What was measured:
[1] = target: His-tagged human Rap1b (human) (UniProt P61224); assay: pull-down; His-Rap1b nucleotide free (EDTA) with GST-SIN1^RBD, 25 ug of each, same buffer; Ni-NTA resin 2 hours at 4 C; washes with 500 mM NaCl; Coomassie Blue; both purified
[2] = target: His-tagged human Rap1b (human) (UniProt P61224); assay: pull-down; His-Rap1b GppNHp-bound with GST-SIN1^RBD, 25 ug of each, 50 mM Tris-Cl, 150 mM NaCl, 5 mM MgCl2, 1 mM beta-mercaptoethanol, pH 7.5; Ni-NTA resin 2 hours at 4 C; washes with 500 mM NaCl; Coomassie Blue; both purified

In the case of “GST-SIN1^RBD (aa 266-374) (from UniProt Q9BPZ7 266-374) (domain or fragment)”, the binding [1] is reported as “no binding (condition: nucleotide free Rap1b (EDTA))” and the binding [2] is reported as “binds”.
